These are yes or no findings as the source states them, for the method shown. For part of these data: Binding seen in cells or lysates may run through a third protein. Some entries that bind do so weakly or less than the wild type. One block for each molecule: values may come before it.
Tests used:
[1] = target: His6-MxDnaK2, purified recombinant (Myxococcus xanthus DK1622) (UniProt P95334); experiment: SDS-PAGE of the purified protein
[2] = target: MxDnaK2-nLuc (MxDnaK2-LgBiT and MxDnaK2-SmBiT) (Myxococcus xanthus DK1622) (UniProt P95334); experiment: split reporter
[3] = target: His6-MxDnaK2, purified recombinant (Myxococcus xanthus DK1622) (UniProt P95334); experiment: SDS-PAGE bands of the Ni-NTA purified protein, identified

The chains behind the UniProt entries cited, without tags or fusion partners.
UniProt P95334: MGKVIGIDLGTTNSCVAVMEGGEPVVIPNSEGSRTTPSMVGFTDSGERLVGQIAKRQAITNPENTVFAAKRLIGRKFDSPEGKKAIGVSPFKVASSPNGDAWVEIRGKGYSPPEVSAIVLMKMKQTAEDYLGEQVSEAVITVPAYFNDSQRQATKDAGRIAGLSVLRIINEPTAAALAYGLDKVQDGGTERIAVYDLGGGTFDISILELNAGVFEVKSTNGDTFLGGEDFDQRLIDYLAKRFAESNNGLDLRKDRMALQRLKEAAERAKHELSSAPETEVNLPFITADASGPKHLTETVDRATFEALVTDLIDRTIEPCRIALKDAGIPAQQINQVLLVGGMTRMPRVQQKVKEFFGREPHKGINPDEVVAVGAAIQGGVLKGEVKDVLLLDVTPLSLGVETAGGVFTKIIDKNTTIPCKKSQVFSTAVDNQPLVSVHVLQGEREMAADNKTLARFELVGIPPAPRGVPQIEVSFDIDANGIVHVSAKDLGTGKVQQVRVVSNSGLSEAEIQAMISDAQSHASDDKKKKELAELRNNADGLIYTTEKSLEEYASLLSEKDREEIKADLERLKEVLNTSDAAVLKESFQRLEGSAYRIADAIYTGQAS

binding [1]: no binding (condition: with 100 mM DTT)
Molecule: His6-MxDnaK2, purified recombinant (from UniProt P95334 1-607)

binding [2]: binds
Molecule: MxDnaK2-nLuc (MxDnaK2-LgBiT and MxDnaK2-SmBiT) (from UniProt P95334 1-607)

binding [3]: binds
B1: anti-FlhDC factor (WP_001300634.1, 27 kDa) (protein, UniProt P76204 1-237)
chain: MKIFLENLYHSDCYFLPIRDNQQVLVGVELITHFSSEDGTVRIPTSRVIAQLTEEQHWQLFSEQLELLKSCQHFFIQHKLFAWLNLTPQVATLLLERDNYAGELLKYPFIELLINENYPHLNEGKDNRGLLSLSQVYPLVLGNLGAGNSTMKAVFDGLFTRVMLDKSFIQQQITHRSFEPFIRAIQAQISPCCNCIIAGGIDTAEILAQITPFDFHALQGCLWPAVPINQITTLVQR
